Assay results reported in paper PMC4889046 (PLoS ONE, 2016).
These are yes or no findings as the source states them, for the method shown. In cells and extracts the contact can be indirect. Some binding calls cover weakened binding; strength is not graded here. Tags and fused reporters may be left off the sequences shown.

Target: APOBEC4 fused to three C-terminal HA-tags (A4-HA) (human) (UniProt Q8WW27)
Assay: cross-linking

B1: APOBEC4 fused to three C-terminal HA-tags (A4-HA) (natural protein, human, UniProt Q8WW27 1-367, looked up)
chain: MEPIYEEYLANHGTIVKPYYWLSFSLDCSNCPYHIRTGEEARVSLTEFCQIFGFPYGTTFPQTKHLTFYELKTSSGSLVQKGHASSCTGNYIHPESMLFEMNGYLDSAIYNNDSIRHIILYSNNSPCNEANHCCISKMYNFLITYPGITLSIYFSQLYHTEMDFPASAWNREALRSLASLWPRVVLSPISGGIWHSVLHSFISGVSGSHVFQPILTGRALADRHNAYEINAITGVKPYFTDVLLQTKRNPNTKAQEALESYPLNNAFPGQFFQMPSGQLQPNLPPDLRAPVVFVLVPLRDLPPMHMGQNPNKPRNIVRHLNMPQMSFQETKDLGRLPTGRSVEIVEITEQFASSKEADEKKKKKGKK
notes: also called A4-3xHA; pA4-HA; not shown: 3xHA, C-terminal, kept
- binding: binds
